# Experimental data from PubChem BioAssay AID1671190 (National Center for Advancing Translational Sciences (NCATS), 2021).
# Chains of the proteins cited; added tags and fusions are not shown.
# UniProt P18054, whole entry, looked up: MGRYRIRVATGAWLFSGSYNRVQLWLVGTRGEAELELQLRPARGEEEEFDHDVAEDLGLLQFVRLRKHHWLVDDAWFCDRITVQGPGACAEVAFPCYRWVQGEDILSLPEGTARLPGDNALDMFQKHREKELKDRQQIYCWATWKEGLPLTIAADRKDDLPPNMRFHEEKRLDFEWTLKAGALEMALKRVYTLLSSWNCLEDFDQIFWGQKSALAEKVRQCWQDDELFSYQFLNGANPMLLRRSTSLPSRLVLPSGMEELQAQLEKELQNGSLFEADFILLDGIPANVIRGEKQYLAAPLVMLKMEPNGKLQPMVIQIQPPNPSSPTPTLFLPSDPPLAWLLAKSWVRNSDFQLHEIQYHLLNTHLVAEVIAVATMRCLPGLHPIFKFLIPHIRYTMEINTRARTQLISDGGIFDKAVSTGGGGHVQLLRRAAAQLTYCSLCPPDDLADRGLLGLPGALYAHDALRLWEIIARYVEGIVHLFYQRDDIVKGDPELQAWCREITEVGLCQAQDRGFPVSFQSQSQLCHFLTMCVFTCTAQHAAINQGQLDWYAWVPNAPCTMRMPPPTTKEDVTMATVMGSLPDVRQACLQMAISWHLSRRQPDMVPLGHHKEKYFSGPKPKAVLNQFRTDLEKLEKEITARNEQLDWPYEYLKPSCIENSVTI
# “And” between values parts separate entries of the source, which are not always exact repeats. Equal entries are not always repeated. Hit rate of the full screen: of about 580,000 compounds, about 6,100 (1.1%) were called active. The inconclusive results got no clear call from the source; some entries with a clear call stand among them for comparison. The call rests on the fitted dose curve; in most records, active means well fitted inhibition curve with a large enough effect; inconclusive means small, poorly fitted or top-dose-only effect, or another doubt; inactive means no such curve, though single readings can be large or run the other way. Where the call is inconclusive, the potency comes from a doubtful curve fit.
# Target: Polyunsaturated fatty acid lipoxygenase ALOX12 (Homo sapiens) (UniProt P18054)
# Experiment: Primary qHTS assay for inhibitors of human arachidonate 12S-lipoxygenase (ALOX12): Round 2
# Details: purified 12hLO, xylenol orange hydroperoxide absorbance; activity change, negative = inhibition: at 108 µM (top of the series) unless noted
# Method in brief: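 Purified human 12hLO (150 nM final) in 25 mM Hepes, 0.01% Triton X-100, pH 7.0 was preincubated 15 min at room temperature with compound. Then 40 uM arachidonic acid was added, 30 min. Hydroperoxide was read by Fe-XO absorbance ratio 573/405 nm.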
# On the % scale 0 is the no-effect control and ±100 the full control effect; potency means the concentration at half of the fitted maximal effect.
Compound,"activity change, negative = inhibition",Potency
CCCCCCSc1nc(N)c2c3c(sc2n1)CCCC3C (stereo not given),inactive: 5.2%,
CCCn1c(=O)n(CC(=O)Nc2ccc(Oc3ccccc3)cc2)c(=O)c2c1nc(C)n2CCOC,inactive: -12.3%,
CCOC(=O)NC(N(O)c1cccc(Cl)c1)C(Cl)(Cl)Cl (stereo not given),,"inconclusive: 70.8 µM [inhibitor, partial curve, poor fit]"
O=C(Nc1nc2ccccc2c(=O)[nH]1)c1ccccc1SCc1ccccc1,,"inconclusive: 100 µM [inhibitor, partial curve, poor fit]"
O=c1[nH]c2cc([N+](=O)[O-])ccc2c2cc(Br)ccc12,inactive: -14.1%,
Cc1cc(C)c2c(NC(=S)Nc3ccccc3)n[nH]c2n1,,"inconclusive: 50.1 µM [inhibitor, partial curve, poor fit]"
Cc1ccc(-c2nc(CNC(=O)c3ccccc3)c(C)o2)cc1,,"inconclusive: 31.6 µM [inhibitor, partial curve]"
O=S(=O)(NCC1CN(Cc2ccccc2)CCO1)c1ccccc1 (stereo not given),inactive: -7.39%,
O=C(CCc1nc2ccccc2c(=O)[nH]1)Nc1ccc(F)cc1,,"inconclusive: 6.31 µM [inhibitor, full curve, poor fit]"
CCOC(=O)c1[nH]c(C)c(C(=O)Nc2cccc(Cl)c2C)c1C,,inactive
O=C(CCCN1CCC(O)(c2ccc(Cl)cc2)CC1)c1ccc(F)cc1,,"inconclusive: 3.06 µM [inhibitor, full curve] and inconclusive: 22.4 µM [inhibitor, partial curve, poor fit]"
CCn1cc(C(=O)OCC(=O)c2cc(C)n(-c3ccccc3)c2C)c(=O)c2ccc(C)nc21,inactive: -17%,
FC(F)(F)c1cccc(NCc2n[nH]c(=S)n2C2CCCCC2)c1,,"inconclusive: 20 µM [inhibitor, partial curve, poor fit]"
COc1cc(OC)c(NC(=O)C(CC(C)C)N2Cc3ccccc3C2=O)cc1Cl (stereo not given),,"inconclusive: 126 µM [inhibitor, partial curve, poor fit]"
CS(=O)(=O)Nc1ccc(C(=O)NCCSc2ccc(Cl)cc2)cc1,,"inconclusive: 89.1 µM [inhibitor, single point]"
Cc1ccc(NC(=O)N2CCC3(CC2)SCC(=O)N3Cc2ccco2)cc1Cl,inactive: 15.5%,
Cc1nn(C)c(NC(=O)c2ccccc2Cl)c1Br,inactive: 0.334%,
COc1ccccc1CCNC(=O)c1cc(-c2ccncc2)nc2ccc(Br)cc12,inactive: -9.24%,
Cc1ccc(NC(=O)CCN2C(=O)c3ccccc3Sc3ncccc32)cc1,,inactive
CC(=O)c1c(C)[nH]c(C(=O)NCc2cccc(Cl)c2)c1C,,"inconclusive: 5.01 µM [inhibitor, full curve, poor fit]"

# 2 entries picked at random from those above, as already listed:
Compound,"activity change, negative = inhibition",Potency
CCn1cc(C(=O)OCC(=O)c2cc(C)n(-c3ccccc3)c2C)c(=O)c2ccc(C)nc21,inactive: -17%,
CCCCCCSc1nc(N)c2c3c(sc2n1)CCCC3C (stereo not given),inactive: 5.2%,
